The supplement of paper PMC6411743
± gives the standard deviation of the averaged measurements. This is a selection; strong and weak results do not stand in their true shares. Most entries show no effect beyond the scatter of the controls.

The chains behind the UniProt entries cited, without tags or fusion partners. Where a name states a change or a piece, a line headed by the entry shows the natural chain unless it says otherwise.
UniProt Q13630: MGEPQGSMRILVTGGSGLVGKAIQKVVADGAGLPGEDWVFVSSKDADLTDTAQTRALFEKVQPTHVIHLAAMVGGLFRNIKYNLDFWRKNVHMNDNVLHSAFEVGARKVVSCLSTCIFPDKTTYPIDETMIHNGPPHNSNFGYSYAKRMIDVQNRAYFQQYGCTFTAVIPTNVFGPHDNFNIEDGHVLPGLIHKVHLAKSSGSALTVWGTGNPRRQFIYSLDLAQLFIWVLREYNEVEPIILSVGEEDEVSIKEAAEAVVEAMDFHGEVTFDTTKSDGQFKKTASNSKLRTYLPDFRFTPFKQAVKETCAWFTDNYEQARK
UniProt Q02535: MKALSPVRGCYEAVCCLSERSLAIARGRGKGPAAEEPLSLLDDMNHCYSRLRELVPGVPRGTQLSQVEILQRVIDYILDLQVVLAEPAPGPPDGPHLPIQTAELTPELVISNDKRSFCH
UniProt Q00796: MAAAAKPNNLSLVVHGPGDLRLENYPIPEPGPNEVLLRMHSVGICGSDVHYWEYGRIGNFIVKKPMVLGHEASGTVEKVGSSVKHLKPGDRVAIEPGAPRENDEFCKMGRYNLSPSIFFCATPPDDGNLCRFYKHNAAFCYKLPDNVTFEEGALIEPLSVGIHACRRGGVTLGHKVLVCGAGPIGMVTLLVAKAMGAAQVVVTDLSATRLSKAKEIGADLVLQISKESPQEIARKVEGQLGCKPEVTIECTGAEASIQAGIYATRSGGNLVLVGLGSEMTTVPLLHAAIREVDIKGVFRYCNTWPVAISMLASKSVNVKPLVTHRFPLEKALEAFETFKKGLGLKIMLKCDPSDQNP
UniProt Q13422: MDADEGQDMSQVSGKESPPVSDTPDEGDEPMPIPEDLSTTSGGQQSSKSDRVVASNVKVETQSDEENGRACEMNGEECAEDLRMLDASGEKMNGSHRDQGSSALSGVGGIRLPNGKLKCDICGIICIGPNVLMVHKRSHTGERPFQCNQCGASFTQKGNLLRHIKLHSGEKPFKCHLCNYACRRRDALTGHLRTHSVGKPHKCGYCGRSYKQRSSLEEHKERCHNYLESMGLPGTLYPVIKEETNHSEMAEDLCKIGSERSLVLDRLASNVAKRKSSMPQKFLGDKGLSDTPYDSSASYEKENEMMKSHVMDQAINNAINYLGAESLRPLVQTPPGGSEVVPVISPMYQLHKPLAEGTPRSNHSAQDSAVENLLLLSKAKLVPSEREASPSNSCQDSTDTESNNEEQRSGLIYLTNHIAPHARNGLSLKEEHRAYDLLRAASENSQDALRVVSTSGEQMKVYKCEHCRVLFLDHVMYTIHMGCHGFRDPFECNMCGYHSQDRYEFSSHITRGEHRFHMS
UniProt Q14011: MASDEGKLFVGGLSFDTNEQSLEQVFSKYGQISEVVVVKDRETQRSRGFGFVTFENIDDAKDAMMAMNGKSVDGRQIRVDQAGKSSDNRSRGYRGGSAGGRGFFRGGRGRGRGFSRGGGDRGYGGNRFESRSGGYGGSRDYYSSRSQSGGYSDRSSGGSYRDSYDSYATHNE
UniProt Q13530: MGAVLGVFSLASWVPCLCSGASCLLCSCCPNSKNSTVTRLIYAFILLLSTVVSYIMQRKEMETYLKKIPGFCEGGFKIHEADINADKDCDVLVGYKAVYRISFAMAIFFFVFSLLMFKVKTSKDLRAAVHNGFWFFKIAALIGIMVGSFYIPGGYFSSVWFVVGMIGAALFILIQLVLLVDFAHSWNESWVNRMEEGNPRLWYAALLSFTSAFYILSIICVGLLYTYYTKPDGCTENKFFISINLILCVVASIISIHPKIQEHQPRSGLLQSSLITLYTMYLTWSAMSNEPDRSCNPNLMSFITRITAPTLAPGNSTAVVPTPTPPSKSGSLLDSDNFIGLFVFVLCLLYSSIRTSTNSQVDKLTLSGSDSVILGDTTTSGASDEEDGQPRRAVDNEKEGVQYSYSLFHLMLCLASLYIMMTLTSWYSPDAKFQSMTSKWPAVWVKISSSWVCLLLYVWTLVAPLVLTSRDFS
UniProt Q14118: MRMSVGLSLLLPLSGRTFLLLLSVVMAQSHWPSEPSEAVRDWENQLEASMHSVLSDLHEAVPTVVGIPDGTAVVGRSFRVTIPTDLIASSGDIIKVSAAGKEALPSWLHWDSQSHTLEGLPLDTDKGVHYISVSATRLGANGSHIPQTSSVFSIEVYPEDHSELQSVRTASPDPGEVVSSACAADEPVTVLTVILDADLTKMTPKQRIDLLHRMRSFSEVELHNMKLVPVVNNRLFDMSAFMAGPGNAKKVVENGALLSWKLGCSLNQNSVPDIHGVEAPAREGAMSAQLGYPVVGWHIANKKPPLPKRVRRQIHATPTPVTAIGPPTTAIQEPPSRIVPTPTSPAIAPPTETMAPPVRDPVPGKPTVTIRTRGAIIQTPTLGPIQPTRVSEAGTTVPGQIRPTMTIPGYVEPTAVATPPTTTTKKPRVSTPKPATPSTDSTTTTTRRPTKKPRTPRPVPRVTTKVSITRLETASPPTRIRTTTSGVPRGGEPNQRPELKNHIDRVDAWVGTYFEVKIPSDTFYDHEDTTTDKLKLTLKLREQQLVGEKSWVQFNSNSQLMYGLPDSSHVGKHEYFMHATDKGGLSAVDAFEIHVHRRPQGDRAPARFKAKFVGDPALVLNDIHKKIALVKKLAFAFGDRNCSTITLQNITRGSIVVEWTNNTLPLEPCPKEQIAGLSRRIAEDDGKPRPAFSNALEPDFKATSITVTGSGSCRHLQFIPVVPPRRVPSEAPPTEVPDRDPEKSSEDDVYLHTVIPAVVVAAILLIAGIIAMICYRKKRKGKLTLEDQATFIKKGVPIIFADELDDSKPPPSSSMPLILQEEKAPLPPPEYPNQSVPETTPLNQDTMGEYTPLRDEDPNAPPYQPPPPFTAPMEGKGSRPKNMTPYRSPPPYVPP
UniProt Q08752, whole entry: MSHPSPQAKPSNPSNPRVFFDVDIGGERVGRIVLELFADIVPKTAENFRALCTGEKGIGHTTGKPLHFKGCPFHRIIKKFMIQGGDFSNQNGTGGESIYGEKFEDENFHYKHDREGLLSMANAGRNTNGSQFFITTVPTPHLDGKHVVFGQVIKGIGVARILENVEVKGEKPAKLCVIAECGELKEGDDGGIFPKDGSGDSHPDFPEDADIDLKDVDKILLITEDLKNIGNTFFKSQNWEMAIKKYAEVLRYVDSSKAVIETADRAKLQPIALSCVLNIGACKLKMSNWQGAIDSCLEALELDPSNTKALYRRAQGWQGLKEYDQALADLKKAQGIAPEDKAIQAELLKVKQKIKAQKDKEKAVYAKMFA
UniProt Q14137: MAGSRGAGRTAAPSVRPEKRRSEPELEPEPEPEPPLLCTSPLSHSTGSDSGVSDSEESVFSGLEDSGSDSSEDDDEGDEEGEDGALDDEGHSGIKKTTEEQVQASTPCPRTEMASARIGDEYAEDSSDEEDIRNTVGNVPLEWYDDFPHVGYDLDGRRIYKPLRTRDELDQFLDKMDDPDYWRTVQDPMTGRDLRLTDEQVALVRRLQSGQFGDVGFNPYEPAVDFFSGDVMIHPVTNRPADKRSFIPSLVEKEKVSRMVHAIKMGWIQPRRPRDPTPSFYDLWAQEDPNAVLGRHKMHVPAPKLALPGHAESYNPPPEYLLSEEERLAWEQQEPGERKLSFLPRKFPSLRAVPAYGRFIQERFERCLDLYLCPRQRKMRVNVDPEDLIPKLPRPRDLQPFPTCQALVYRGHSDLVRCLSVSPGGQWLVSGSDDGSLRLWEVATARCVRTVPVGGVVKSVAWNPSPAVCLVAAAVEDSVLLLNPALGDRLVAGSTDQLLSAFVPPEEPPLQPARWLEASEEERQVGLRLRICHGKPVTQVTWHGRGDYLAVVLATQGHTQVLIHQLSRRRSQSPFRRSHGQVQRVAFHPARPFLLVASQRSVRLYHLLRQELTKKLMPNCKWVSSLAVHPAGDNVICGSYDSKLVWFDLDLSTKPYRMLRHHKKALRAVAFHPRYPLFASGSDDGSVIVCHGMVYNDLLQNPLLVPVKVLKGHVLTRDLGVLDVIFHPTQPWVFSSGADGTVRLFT
UniProt Q13137: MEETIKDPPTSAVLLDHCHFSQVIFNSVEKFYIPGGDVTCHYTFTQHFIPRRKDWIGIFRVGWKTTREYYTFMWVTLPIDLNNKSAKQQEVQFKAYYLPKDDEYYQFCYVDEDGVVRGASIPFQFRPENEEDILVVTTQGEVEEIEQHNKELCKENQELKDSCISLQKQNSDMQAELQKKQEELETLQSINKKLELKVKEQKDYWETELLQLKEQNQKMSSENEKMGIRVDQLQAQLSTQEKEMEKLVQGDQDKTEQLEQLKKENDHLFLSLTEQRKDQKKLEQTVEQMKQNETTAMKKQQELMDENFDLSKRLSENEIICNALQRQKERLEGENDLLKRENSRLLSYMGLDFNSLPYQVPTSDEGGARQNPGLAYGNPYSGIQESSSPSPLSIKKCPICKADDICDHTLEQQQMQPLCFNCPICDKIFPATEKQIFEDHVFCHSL
UniProt Q01543: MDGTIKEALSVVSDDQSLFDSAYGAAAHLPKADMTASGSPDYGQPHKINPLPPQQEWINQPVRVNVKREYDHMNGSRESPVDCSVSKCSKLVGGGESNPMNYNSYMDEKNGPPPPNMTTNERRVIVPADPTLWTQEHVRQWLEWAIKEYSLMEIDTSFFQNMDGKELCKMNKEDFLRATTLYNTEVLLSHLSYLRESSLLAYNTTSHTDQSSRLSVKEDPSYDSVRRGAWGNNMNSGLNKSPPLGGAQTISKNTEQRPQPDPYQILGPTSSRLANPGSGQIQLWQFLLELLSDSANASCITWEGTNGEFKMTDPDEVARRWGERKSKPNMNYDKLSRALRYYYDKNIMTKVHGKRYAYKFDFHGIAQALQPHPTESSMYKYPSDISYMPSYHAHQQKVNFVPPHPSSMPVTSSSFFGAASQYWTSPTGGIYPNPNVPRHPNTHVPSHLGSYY
UniProt Q13347, whole entry: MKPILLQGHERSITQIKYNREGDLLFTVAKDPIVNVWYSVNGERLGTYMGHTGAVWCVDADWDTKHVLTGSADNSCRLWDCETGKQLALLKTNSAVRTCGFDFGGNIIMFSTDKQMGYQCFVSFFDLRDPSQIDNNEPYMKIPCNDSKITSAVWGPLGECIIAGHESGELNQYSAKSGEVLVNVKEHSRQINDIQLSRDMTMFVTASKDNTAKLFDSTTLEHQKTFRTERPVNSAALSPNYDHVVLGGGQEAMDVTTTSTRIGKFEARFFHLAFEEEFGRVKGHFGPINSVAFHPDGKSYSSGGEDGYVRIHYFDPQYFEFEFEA
UniProt Q14142: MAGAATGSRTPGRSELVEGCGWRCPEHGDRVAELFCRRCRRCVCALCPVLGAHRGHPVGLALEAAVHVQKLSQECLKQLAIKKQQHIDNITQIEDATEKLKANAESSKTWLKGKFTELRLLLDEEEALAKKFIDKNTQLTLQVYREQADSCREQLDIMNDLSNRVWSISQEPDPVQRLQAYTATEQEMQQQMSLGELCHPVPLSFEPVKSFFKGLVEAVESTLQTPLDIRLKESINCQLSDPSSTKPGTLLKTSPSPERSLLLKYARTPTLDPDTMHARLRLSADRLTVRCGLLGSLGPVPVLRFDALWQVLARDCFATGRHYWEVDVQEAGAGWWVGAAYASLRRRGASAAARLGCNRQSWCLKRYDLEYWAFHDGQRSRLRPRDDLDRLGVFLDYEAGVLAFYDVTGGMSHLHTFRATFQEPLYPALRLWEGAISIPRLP
UniProt Q13111, whole entry: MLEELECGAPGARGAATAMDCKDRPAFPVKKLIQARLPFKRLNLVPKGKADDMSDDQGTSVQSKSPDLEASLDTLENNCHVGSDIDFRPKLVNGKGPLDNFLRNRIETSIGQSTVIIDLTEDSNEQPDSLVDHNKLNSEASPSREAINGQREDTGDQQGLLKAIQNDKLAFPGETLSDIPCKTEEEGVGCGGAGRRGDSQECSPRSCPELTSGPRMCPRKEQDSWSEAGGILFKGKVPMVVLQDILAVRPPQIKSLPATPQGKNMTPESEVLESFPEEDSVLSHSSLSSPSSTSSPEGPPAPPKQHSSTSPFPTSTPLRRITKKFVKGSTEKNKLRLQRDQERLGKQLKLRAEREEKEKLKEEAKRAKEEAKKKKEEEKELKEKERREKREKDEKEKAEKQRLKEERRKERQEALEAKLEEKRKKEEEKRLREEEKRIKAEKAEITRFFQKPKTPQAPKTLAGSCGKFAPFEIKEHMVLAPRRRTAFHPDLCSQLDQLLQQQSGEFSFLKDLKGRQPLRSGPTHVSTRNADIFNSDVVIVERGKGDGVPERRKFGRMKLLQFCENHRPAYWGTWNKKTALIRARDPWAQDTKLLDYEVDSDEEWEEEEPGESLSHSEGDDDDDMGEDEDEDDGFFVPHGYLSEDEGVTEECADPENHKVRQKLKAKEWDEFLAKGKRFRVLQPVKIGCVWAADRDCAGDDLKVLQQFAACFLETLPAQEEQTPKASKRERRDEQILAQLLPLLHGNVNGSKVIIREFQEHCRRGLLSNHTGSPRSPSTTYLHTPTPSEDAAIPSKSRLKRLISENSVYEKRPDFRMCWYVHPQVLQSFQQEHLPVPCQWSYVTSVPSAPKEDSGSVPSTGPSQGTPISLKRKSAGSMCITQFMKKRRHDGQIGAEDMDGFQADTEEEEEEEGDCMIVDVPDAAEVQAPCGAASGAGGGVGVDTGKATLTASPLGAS

Compound: Nc1ncnc2c1ncn2[C@@H]1O[C@H](COP(=O)(O)OP(=O)(O)OP(=O)(O)O)[C@@H](O)[C@H]1O [adenosine triphosphate]
Test: NP40-soluble protein abundance relative to vehicle (solubility fold change) (ratio); higher = more soluble protein in presence of ATP
Outline: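 Across three independent experiments, values are fold changes against the detergent-processed vehicle for each replicate, based on vsn-normalised intensities. The samples were Jurkat crude lysate treated with eight concentrations (0.1 to 10 mM) for 10 min at room temperature and then 3 min at 37 °C. Lysate was solubilised with 0.8% NP40 and benzonase, ultracentrifuged, and the supernatant analysed by TMT-labelled LC-MS/MS.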

TSTA3 (UniProt Q13630)
NP40-soluble protein abundance (concentration: 0.1mM): 0.969 ± 0.06 | NP40-soluble protein abundance (concentration: 0.5mM): 0.951 ± 0.028

ROCK1 (UniProt Q13464)
NP40-soluble protein abundance (concentration: 0.1mM): 1.01 ± 0.038 | NP40-soluble protein abundance (concentration: 0.5mM): 1.02 ± 0.073

UniProt Q13615 and related entries
NP40-soluble protein abundance (concentration: 0.1mM): 1.02 ± 0.056 | NP40-soluble protein abundance (concentration: 0.5mM): 1.01 ± 0.024

UniProt Q02535
NP40-soluble protein abundance (concentration: 0.1mM): 1.34 ± 0.25 | NP40-soluble protein abundance (concentration: 0.5mM): 0.89 ± 0.055

UniProt Q13795 and related entries
NP40-soluble protein abundance (concentration: 0.1mM): 1.005 ± 0.0087 | NP40-soluble protein abundance (concentration: 0.5mM): 0.991 ± 0.023 | NP40-soluble protein abundance (concentration: 1mM): 0.95 ± 0.024 | NP40-soluble protein abundance (concentration: 2mM): 0.961 ± 0.015 | NP40-soluble protein abundance (concentration: 4mM): 0.932 ± 0.025 | NP40-soluble protein abundance (concentration: 6mM): 0.962 ± 0.046 | NP40-soluble protein abundance (concentration: 8mM): 0.9416 ± 0.0073 | NP40-soluble protein abundance (concentration: 10mM): 0.945 ± 0.039

SORD (UniProt Q00796)
NP40-soluble protein abundance (concentration: 0.1mM): 0.997 ± 0.043 | NP40-soluble protein abundance (concentration: 0.5mM): 1.02 ± 0.024

UniProt Q13422 and related entries
NP40-soluble protein abundance (concentration: 0.1mM): 0.98 ± 0.032 | NP40-soluble protein abundance (concentration: 0.5mM): 1.02 ± 0.052

UniProt Q13469 and related entries
NP40-soluble protein abundance (concentration: 0.1mM): 1 ± 0.052 | NP40-soluble protein abundance (concentration: 0.5mM): 1.03 ± 0.075

CIRBP (UniProt Q14011)
NP40-soluble protein abundance (concentration: 0.1mM): 1 ± 0.035 | NP40-soluble protein abundance (concentration: 0.5mM): 1.02 ± 0.051 | NP40-soluble protein abundance (concentration: 1mM): 0.999 ± 0.062 | NP40-soluble protein abundance (concentration: 2mM): 1.02 ± 0.029 | NP40-soluble protein abundance (concentration: 4mM): 1.04 ± 0.033 | NP40-soluble protein abundance (concentration: 6mM): 1.1 ± 0.061 | NP40-soluble protein abundance (concentration: 8mM): 1.09 ± 0.051 | NP40-soluble protein abundance (concentration: 10mM): 1.1 ± 0.025

UniProt Q13530 and related entries
NP40-soluble protein abundance (concentration: 0.1mM): 1.03 ± 0.063 | NP40-soluble protein abundance (concentration: 0.5mM): 0.957 ± 0.023

UniProt Q13595 and related entries
NP40-soluble protein abundance (concentration: 0.1mM): 0.935 ± 0.051 | NP40-soluble protein abundance (concentration: 0.5mM): 1.19 ± 0.14

MGAT5 (UniProt Q09328)
NP40-soluble protein abundance (concentration: 0.1mM): 1 ± 0.067 | NP40-soluble protein abundance (concentration: 0.5mM): 0.954 ± 0.089

DAG1 (UniProt Q14118)
NP40-soluble protein abundance (concentration: 0.1mM): 0.978 ± 0.12 | NP40-soluble protein abundance (concentration: 0.5mM): 0.938 ± 0.15

FABP5 (UniProt Q01469)
NP40-soluble protein abundance (concentration: 0.1mM): 0.973 ± 0.046 | NP40-soluble protein abundance (concentration: 0.5mM): 0.991 ± 0.038

PPID (UniProt Q08752)
NP40-soluble protein abundance (concentration: 0.1mM): 1 ± 0.043 | NP40-soluble protein abundance (concentration: 0.5mM): 0.998 ± 0.052

GALNT2 (UniProt Q10471)
NP40-soluble protein abundance (concentration: 0.1mM): 1.05 ± 0.077 | NP40-soluble protein abundance (concentration: 0.5mM): 1.05 ± 0.059

BOP1 (UniProt Q14137)
NP40-soluble protein abundance (concentration: 0.1mM): 1.01 ± 0.017 | NP40-soluble protein abundance (concentration: 0.5mM): 1.06 ± 0.039

CRYZ (UniProt Q08257)
NP40-soluble protein abundance (concentration: 0.1mM): 1.02 ± 0.073 | NP40-soluble protein abundance (concentration: 0.5mM): 1.03 ± 0.047

UniProt Q13137 and related entries
NP40-soluble protein abundance (concentration: 0.1mM): 1 ± 0.03 | NP40-soluble protein abundance (concentration: 0.5mM): 1.02 ± 0.07 | NP40-soluble protein abundance (concentration: 1mM): 0.962 ± 0.033 | NP40-soluble protein abundance (concentration: 2mM): 0.968 ± 0.032 | NP40-soluble protein abundance (concentration: 4mM): 0.9319 ± 0.0066 | NP40-soluble protein abundance (concentration: 6mM): 0.986 ± 0.03 | NP40-soluble protein abundance (concentration: 8mM): 0.941 ± 0.012 | NP40-soluble protein abundance (concentration: 10mM): 0.948 ± 0.026

OTUD4 (UniProt Q01804)
NP40-soluble protein abundance (concentration: 0.1mM): 1.04 ± 0.054 | NP40-soluble protein abundance (concentration: 0.5mM): 1.01 ± 0.035

UniProt Q01432-5|Q01432 and related entries
NP40-soluble protein abundance (concentration: 0.1mM): 1.04 ± 0.048 | NP40-soluble protein abundance (concentration: 0.5mM): 1.07 ± 0.022

UniProt Q01543 and related entries
NP40-soluble protein abundance (concentration: 0.1mM): 0.983 ± 0.025 | NP40-soluble protein abundance (concentration: 0.5mM): 0.999 ± 0.029 | NP40-soluble protein abundance (concentration: 1mM): 0.989 ± 0.05 | NP40-soluble protein abundance (concentration: 2mM): 0.997 ± 0.013 | NP40-soluble protein abundance (concentration: 4mM): 0.996 ± 0.032 | NP40-soluble protein abundance (concentration: 6mM): 1.01 ± 0.048 | NP40-soluble protein abundance (concentration: 8mM): 0.969 ± 0.033 | NP40-soluble protein abundance (concentration: 10mM): 0.9608 ± 0.0033

UniProt Q13472 and related entries
NP40-soluble protein abundance (concentration: 0.1mM): 1.02 ± 0.061 | NP40-soluble protein abundance (concentration: 0.5mM): 1.01 ± 0.071

UniProt Q09666 and related entries
NP40-soluble protein abundance (concentration: 0.1mM): 0.981 ± 0.016 | NP40-soluble protein abundance (concentration: 0.5mM): 0.991 ± 0.054

EIF3I (UniProt Q13347)
NP40-soluble protein abundance (concentration: 0.1mM): 0.979 ± 0.023 | NP40-soluble protein abundance (concentration: 0.5mM): 1.01 ± 0.031

GOLGA3 (UniProt Q08378)
NP40-soluble protein abundance (concentration: 0.1mM): 0.971 ± 0.047 | NP40-soluble protein abundance (concentration: 0.5mM): 0.978 ± 0.071

UniProt Q12789 and related entries
NP40-soluble protein abundance (concentration: 0.1mM): 1.04 ± 0.034 | NP40-soluble protein abundance (concentration: 0.5mM): 1.049 ± 0.0063

UniProt Q02543 and related entries
NP40-soluble protein abundance (concentration: 0.1mM): 0.922 ± 0.11 | NP40-soluble protein abundance (concentration: 0.5mM): 0.947 ± 0.15

EIF4EBP2 (UniProt Q13542)
NP40-soluble protein abundance (concentration: 0.1mM): 0.931 ± 0.073 | NP40-soluble protein abundance (concentration: 0.5mM): 0.97 ± 0.14

PSMD2 (UniProt Q13200)
NP40-soluble protein abundance (concentration: 0.1mM): 0.98 ± 0.04 | NP40-soluble protein abundance (concentration: 0.5mM): 0.956 ± 0.033

UniProt Q02880-2
NP40-soluble protein abundance (concentration: 0.1mM): 1.08 ± 0.038 | NP40-soluble protein abundance (concentration: 0.5mM): 1.22 ± 0.035 | NP40-soluble protein abundance (concentration: 1mM): 1.28 ± 0.061 | NP40-soluble protein abundance (concentration: 2mM): 1.36 ± 0.045 | NP40-soluble protein abundance (concentration: 4mM): 1.57 ± 0.067 | NP40-soluble protein abundance (concentration: 6mM): 1.73 ± 0.13 | NP40-soluble protein abundance (concentration: 8mM): 1.99 ± 0.11 | NP40-soluble protein abundance (concentration: 10mM): 2.07 ± 0.057

UniProt Q13409 and related entries
NP40-soluble protein abundance (concentration: 0.1mM): 1 ± 0.073 | NP40-soluble protein abundance (concentration: 0.5mM): 0.993 ± 0.1 | NP40-soluble protein abundance (concentration: 1mM): 0.957 ± 0.063 | NP40-soluble protein abundance (concentration: 2mM): 0.957 ± 0.037 | NP40-soluble protein abundance (concentration: 4mM): 0.953 ± 0.059 | NP40-soluble protein abundance (concentration: 6mM): 0.994 ± 0.18 | NP40-soluble protein abundance (concentration: 8mM): 0.975 ± 0.089 | NP40-soluble protein abundance (concentration: 10mM): 0.973 ± 0.074

PPIG (UniProt Q13427)
NP40-soluble protein abundance (concentration: 0.1mM): 1.04 ± 0.091 | NP40-soluble protein abundance (concentration: 0.5mM): 1.44 ± 0.17 | NP40-soluble protein abundance (concentration: 1mM): 1.61 ± 0.22 | NP40-soluble protein abundance (concentration: 2mM): 1.69 ± 0.27 | NP40-soluble protein abundance (concentration: 4mM): 1.78 ± 0.32 | NP40-soluble protein abundance (concentration: 6mM): 1.99 ± 0.49 | NP40-soluble protein abundance (concentration: 8mM): 1.85 ± 0.43 | NP40-soluble protein abundance (concentration: 10mM): 1.95 ± 0.46

CTDSPL2 (UniProt Q05D32)
NP40-soluble protein abundance (concentration: 0.1mM): 0.999 ± 0.11 | NP40-soluble protein abundance (concentration: 0.5mM): 1.07 ± 0.042 | NP40-soluble protein abundance (concentration: 1mM): 1.13 ± 0.11 | NP40-soluble protein abundance (concentration: 2mM): 1.13 ± 0.07 | NP40-soluble protein abundance (concentration: 4mM): 1.27 ± 0.09 | NP40-soluble protein abundance (concentration: 6mM): 1.32 ± 0.082 | NP40-soluble protein abundance (concentration: 8mM): 1.33 ± 0.14 | NP40-soluble protein abundance (concentration: 10mM): 1.47 ± 0.03

UniProt Q10567 and related entries
NP40-soluble protein abundance (concentration: 0.1mM): 0.989 ± 0.018 | NP40-soluble protein abundance (concentration: 0.5mM): 1.01 ± 0.051 | NP40-soluble protein abundance (concentration: 1mM): 0.9721 ± 0.0088 | NP40-soluble protein abundance (concentration: 2mM): 0.973 ± 0.015 | NP40-soluble protein abundance (concentration: 4mM): 0.922 ± 0.022 | NP40-soluble protein abundance (concentration: 6mM): 0.964 ± 0.013 | NP40-soluble protein abundance (concentration: 8mM): 0.951 ± 0.0014 | NP40-soluble protein abundance (concentration: 10mM): 0.934 ± 0.024

TRIM14 (UniProt Q14142)
NP40-soluble protein abundance (concentration: 0.1mM): 1.01 ± 0.097 | NP40-soluble protein abundance (concentration: 0.5mM): 1.03 ± 0.12 | NP40-soluble protein abundance (concentration: 1mM): 1.08 ± 0.044 | NP40-soluble protein abundance (concentration: 2mM): 1.05 ± 0.037 | NP40-soluble protein abundance (concentration: 4mM): 1.13 ± 0.088 | NP40-soluble protein abundance (concentration: 6mM): 1.1 ± 0.083 | NP40-soluble protein abundance (concentration: 8mM): 1.17 ± 0.067 | NP40-soluble protein abundance (concentration: 10mM): 1.27 ± 0.2

NFX1 (UniProt Q12986)
NP40-soluble protein abundance (concentration: 0.1mM): 1.06 ± 0.057 | NP40-soluble protein abundance (concentration: 0.5mM): 1.1 ± 0.023 | NP40-soluble protein abundance (concentration: 1mM): 1.07 ± 0.08 | NP40-soluble protein abundance (concentration: 2mM): 1.21 ± 0.042 | NP40-soluble protein abundance (concentration: 4mM): 1.34 ± 0.041 | NP40-soluble protein abundance (concentration: 6mM): 1.46 ± 0.046 | NP40-soluble protein abundance (concentration: 8mM): 1.62 ± 0.031 | NP40-soluble protein abundance (concentration: 10mM): 1.66 ± 0.11

UniProt Q13247 and related entries
NP40-soluble protein abundance (concentration: 0.1mM): 1.05 ± 0.059 | NP40-soluble protein abundance (concentration: 0.5mM): 1.64 ± 0.1 | NP40-soluble protein abundance (concentration: 1mM): 1.84 ± 0.25 | NP40-soluble protein abundance (concentration: 2mM): 1.98 ± 0.19 | NP40-soluble protein abundance (concentration: 4mM): 2 ± 0.21 | NP40-soluble protein abundance (concentration: 6mM): 2.28 ± 0.23 | NP40-soluble protein abundance (concentration: 8mM): 2.17 ± 0.17 | NP40-soluble protein abundance (concentration: 10mM): 2.15 ± 0.25

UniProt Q13111 and related entries
NP40-soluble protein abundance (concentration: 0.1mM): 0.993 ± 0.019 | NP40-soluble protein abundance (concentration: 0.5mM): 1.03 ± 0.065 | NP40-soluble protein abundance (concentration: 1mM): 0.987 ± 0.059 | NP40-soluble protein abundance (concentration: 2mM): 0.988 ± 0.028 | NP40-soluble protein abundance (concentration: 4mM): 0.97 ± 0.035 | NP40-soluble protein abundance (concentration: 6mM): 1.03 ± 0.031 | NP40-soluble protein abundance (concentration: 8mM): 0.977 ± 0.036 | NP40-soluble protein abundance (concentration: 10mM): 1.01 ± 0.036
